No constants are given. Whether binding was seen depends on the method and setting. In cells and extracts the contact can be indirect. Some results given as binding are weak or reduced against the parent protein; the word gives no strength. Tags and fused reporters may be left off the sequences shown.
Experiments:
Test in all cases: co-IP; IP of GFP-tagged subunits overexpressed in HeLa cells, blot for endogenous Vps8; lysis buffer 40 mM TRIS pH 7.4, 100 mM NaCl, 0.1% TX-100, 5 mM EDTA; protein A beads with antibody, 1 h at 4 °C
GFP-Vps11 = target: T1, GFP-Vps11 (UniProt Q9H270)
T1 sequence: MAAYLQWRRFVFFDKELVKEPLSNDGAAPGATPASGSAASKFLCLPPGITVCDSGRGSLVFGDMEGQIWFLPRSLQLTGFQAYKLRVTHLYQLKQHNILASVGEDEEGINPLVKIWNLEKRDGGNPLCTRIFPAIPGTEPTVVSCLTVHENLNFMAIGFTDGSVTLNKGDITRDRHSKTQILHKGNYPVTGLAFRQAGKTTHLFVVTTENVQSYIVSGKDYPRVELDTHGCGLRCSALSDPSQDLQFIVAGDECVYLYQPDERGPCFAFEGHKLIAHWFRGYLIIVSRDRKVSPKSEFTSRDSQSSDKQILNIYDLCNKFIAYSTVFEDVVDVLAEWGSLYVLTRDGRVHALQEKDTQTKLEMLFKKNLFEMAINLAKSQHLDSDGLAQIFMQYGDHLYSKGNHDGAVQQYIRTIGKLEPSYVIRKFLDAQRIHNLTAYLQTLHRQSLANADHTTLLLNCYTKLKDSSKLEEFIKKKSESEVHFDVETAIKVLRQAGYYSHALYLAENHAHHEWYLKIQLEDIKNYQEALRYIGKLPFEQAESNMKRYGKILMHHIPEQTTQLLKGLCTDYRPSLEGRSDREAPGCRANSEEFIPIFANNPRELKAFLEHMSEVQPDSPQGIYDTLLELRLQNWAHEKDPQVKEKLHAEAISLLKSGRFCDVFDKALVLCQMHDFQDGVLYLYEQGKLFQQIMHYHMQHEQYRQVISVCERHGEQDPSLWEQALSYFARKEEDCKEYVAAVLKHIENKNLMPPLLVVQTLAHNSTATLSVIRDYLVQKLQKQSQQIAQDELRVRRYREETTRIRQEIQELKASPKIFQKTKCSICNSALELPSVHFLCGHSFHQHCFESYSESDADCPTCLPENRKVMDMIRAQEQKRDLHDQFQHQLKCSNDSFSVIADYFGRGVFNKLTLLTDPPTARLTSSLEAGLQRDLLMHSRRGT

GFP-tagged Vps16 = target: T2, GFP-tagged Vps16 (UniProt Q9H269)
T2 sequence: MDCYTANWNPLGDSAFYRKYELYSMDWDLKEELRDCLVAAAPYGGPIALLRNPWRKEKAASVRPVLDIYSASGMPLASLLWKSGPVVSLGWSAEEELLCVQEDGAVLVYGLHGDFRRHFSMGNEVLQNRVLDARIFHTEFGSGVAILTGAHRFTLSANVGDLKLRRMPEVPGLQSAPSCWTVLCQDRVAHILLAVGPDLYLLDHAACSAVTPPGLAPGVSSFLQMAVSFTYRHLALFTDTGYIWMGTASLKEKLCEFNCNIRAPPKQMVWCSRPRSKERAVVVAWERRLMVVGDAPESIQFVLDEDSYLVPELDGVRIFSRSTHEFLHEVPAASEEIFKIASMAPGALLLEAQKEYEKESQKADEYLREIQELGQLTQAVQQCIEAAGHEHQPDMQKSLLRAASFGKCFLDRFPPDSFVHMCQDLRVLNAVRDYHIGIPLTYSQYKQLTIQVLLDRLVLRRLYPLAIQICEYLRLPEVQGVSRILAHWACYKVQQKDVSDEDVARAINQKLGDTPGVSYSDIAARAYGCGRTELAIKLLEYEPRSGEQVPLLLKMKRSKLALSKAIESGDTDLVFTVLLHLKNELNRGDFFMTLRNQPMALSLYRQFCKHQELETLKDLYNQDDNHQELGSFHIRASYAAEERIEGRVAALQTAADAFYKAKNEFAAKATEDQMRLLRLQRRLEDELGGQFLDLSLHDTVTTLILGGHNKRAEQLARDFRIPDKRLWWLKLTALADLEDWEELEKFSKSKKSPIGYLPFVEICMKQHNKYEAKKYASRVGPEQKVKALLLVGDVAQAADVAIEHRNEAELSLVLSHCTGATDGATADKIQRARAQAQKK

GFP-Vps3 = target: T3, GFP-Vps3 (UniProt Q8WUH2)
T3 sequence: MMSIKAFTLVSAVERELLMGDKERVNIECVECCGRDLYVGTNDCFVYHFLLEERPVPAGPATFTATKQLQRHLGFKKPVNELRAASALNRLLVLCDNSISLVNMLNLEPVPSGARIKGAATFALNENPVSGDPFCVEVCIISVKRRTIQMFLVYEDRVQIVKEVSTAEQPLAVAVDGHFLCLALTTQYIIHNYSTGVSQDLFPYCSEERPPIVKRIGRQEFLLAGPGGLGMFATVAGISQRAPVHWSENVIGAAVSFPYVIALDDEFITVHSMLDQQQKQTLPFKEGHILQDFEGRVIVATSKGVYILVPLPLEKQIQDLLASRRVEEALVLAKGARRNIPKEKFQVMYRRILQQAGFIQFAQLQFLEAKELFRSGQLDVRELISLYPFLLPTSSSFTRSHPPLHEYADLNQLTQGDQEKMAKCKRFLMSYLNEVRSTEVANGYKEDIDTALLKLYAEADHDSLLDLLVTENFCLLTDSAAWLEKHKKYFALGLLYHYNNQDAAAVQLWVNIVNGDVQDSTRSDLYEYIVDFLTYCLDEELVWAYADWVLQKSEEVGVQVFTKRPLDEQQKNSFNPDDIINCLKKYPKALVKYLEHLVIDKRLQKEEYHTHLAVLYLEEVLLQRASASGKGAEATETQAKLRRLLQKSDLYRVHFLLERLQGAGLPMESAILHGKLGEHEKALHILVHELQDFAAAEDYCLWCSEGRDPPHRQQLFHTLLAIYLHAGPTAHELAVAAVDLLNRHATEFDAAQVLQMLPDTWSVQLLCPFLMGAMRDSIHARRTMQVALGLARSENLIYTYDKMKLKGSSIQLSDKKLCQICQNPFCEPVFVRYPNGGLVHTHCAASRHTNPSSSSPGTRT

binding (GFP-Vps11): binds
binding (GFP-tagged Vps16): binds
binding (GFP-Vps3): binds
B1: endogenous Vps8 (protein, UniProt Q8N3P4 1-1428)
chain: MENEPDHENVEQSLCAKTSEEELNKSFNLEASLSKFSYIDMDKELEFKNDLIDDKEFDIPQVDTPPTLESILNETDDEDESFILEDPTLLNIDTIDSHSYDTSSVASSDSGDRTNLKRKKKLPDSFSLHGSVMRHSLLKGISAQIVSAADKVDAGLPTAIAVSSLIAVGTSHGLALIFGKDQNQALRLCLGSTSVGGQYGAISALSINNDCSRLLCGFAKGQITMWDLASGKLLRSITDAHPPGTAILHIKFTDDPTLAICNDSGGSVFELTFKRVMGVRTCESRCLFSGSKGEVCCIEPLHSKPELKDHPITQFSLLAMASLTKILVIGLKPSLKVWMTFPYGRMDPSSVPLLAWHFVAVQNYVNPMLAFCRGDVVHFLLVKRDESGAIHVTKQKHLHLYYDLINFTWINSRTVVLLDSVEKLHVIDRQTQEELETVEISEVQLVYNSSHFKSLATGGNVSQALALVGEKACYQSISSYGGQIFYLGTKSVYVMMLRSWRERVDHLLKQDCLTEALALAWSFHEGKAKAVVGLSGDASKRKAIVADRMVEILFHYADRALKKCPDQGKIQVMEQHFQDMVPVIVDYCLLLQRKDLLFSQMYDKLSENSVAKGVFLECLEPYILSDKLVGITPQVMKDLIVHFQDKKLMENVEALIVHMDITSLDIQQVVLMCWENRLYDAMIYVYNRGMNEFISPMEKLFRVIAPPLNAGKTLTDEQVVMGNKLLVYISCCLAGRAYPLGDIPEDLVPLVKNQVFEFLIRLHSAEASPEEEIYPYIRTLLHFDTREFLNVLALTFEDFKNDKQAVEYQQRIVDILLKVMVENSDFTPSQVGCLFTFLARQLAKPDNTLFVNRTLFDQVLEFLCSPDDDSRHSERQQVLLELLQAGGIVQFEESRLIRMAEKAEFYQICEFMYEREHQYDKIIDCYLRDPLREEEVFNYIHNILSIPGHSAEEKQSVWQKAMDHIEELVSLKPCKAAELVATHFSGHIETVIKKLQNQVLLFKFLRSLLDPREGIHVNQELLQISPCITEQFIELLCQFNPTQVIETLQVLECYRLEETIQITQKYQLHEVTAYLLEKKGDIHGAFLIMLERLQSKLQEVTHQGENTKEDPSLKDVEDTMVETIALCQRNSHNLNQQQREALWFPLLEAMMAPQKLSSSAIPHLHSEALKSLTMQVLNSMAAFIALPSILQRILQDPVYGKGKLGEIQGLILGMLDTFNYEQTLLETTTSLLNQDLHWSLCNLRASVTRGLNPKQDYCSICLQQYKRRQEMADEIIVFSCGHLYHSFCLQNKECTVEFEGQTRWTCYKCSSSNKVGKLSENSSEIKKGRITPSQVKMSPSYHQSKGDPTAKKGTSEPVLDPQQIQAFDQLCRLYRGSSRLALLTELSQNRSSESYRPFSGSQSAPAFNSIFQNENFQLQLIPPPVTED

Source: PMC5824891
